In publication PMC12431657, “Discovery and mechanistic insights of dibenzoylmethane as a broad spectrum inhibitor of coronavirus” (PLOS Pathogens, 2025):
Structures can show the parent of a compound that is named as a salt. Where two headings read alike, the source gives them in different places. Out of some 3,300 compounds screened, about 95 (3%) showed an effect of 50% or more. The list shows a part of the results. Peptide text beside a SMILES is read from it.

System: HCoV-229E
Design: species or system Huh-7; HTS, protection from HCoV-229E induced cell death, luminescent cell viability (CellCounting-Lite 2.0), inhibition rate
Conditions: 24 h post infection, 1 h compound pre-incubation, 10 µM, inhibitor

Row | Structure (SMILES) | 229E Inhibition rate [%] | 229E Inhibition rate (229E Inhibition rate, 24 h) [%]
1 | COC(=O)C[C@](O)(CCCC(C)(C)O)C(=O)O[C@@H]1C(OC)=C[C@]23CCCN2CCc2cc4c(cc2[C@H]13)OCO4 [Homoharringtonine] | 21 | –
2 | O=C(/C=C/c1ccc(O)c(O)c1)O[C@@H]1CC(C(=O)O)=C[C@@H](O)[C@H]1O [5-O-Caffeoylshikimic acid] | 12 | –
3 | C=C[C@H]1CN2CC[C@H]1C[C@H]2[C@H](O)c1ccnc2ccccc12 [Cinchonidine] | 13.4 | –
4 | O=C(O)CC(CC(=O)O)C(=O)O [Tricarballylic acid] | 13.6 | –
5 | COC(=O)c1c(C)cc(OC(=O)c2c(C)cc(O)c(C=O)c2O)c(C)c1O [Atranorin] | 8.5 | –
6 | OCC1=C[C@@H](O)[C@]2(O[C@@H]3O[C@H](CO)[C@@H](O)[C@H](O)[C@H]3O[C@@H]3O[C@H](CO)[C@@H](O)[C@H](O)[C@H]3O)C=CO[C@@H](O[C@@H]3O[C@H](CO)[C@@H](O)[C@H](O)[C@H]3O)[C@H]12 [Rehmannioside D] | 9.2 | –
7 | CC1=CC=C(C(C)C)CC1 [α-Terpinene] | 7.1 | –
8 | O=c1cc(-c2ccc(O)cc2)oc2c([C@@H]3O[C@H](CO)[C@@H](O)[C@H](O)[C@H]3O)c(O)c([C@@H]3O[C@H](CO)[C@@H](O)[C@H](O)[C@H]3O)c(O)c12 [Vicenin 2] | 11.8 | –
9 | N#CCc1c[nH]c2ccccc12 [3-Indoleacetonitrile] | 21.6 | –
10 | COc1cc(/C=C/C(=O)OC[C@H]2O[C@H](O[C@]3(CO)O[C@H](CO)[C@@H](O)[C@@H]3O)[C@H](O)[C@@H](O)[C@@H]2O)cc(OC)c1O [Sibiricose A1] | 18.6 | –
11 | Nc1c(O)cccc1C(=O)O [3-Hydroxyanthranilic acid] | 0 | –
12 | CC1=NCCc2c1[nH]c1cc(O)ccc21 [Harmalol (hydrochloride)] | 22 | –
13 | COc1nccc(N)n1 [2-O-Methylcytosine] | 0 | –
14 | COc1cc(/C=C/C(=O)NCC(O)c2ccc(O)cc2)ccc1O (centres unmarked) [N-Feruloyloctopamine] | 7.9 | –
15 | C[C@@]12C=Cc3occc3[C@H]1CC[C@@]13C[C@@H](CC[C@H]12)[C@@](O)(CO)C3 [Kahweol] | 6.3 | –
16 | COc1ccc2c3ccnc4ccc(=O)n(c2c1)c43 [9-Methoxycanthin-6-one] | 21.1 | –
17 | C[C@@H]1C[C@H]2O[C@@]3(O[C@@H]2C(C)(C)O)[C@H](O)[C@@]2(C)[C@@H]4CC[C@H]5C(C)(C)[C@@H](O[C@@H]6OC[C@@H](O)[C@H](O)[C@H]6O)CC[C@@]56C[C@@]46CC[C@]2(C)[C@@H]13 [Cimigenoside] | 8.8 | –
18 | CC(C)(O)[C@@H]1CC[C@](C)([C@H]2[C@@H](O)C[C@@]3(C)[C@@H]4C[C@H](O[C@@H]5O[C@H](CO)[C@@H](O)[C@H](O)[C@H]5O)[C@H]5C(C)(C)[C@@H](O[C@@H]6OC[C@@H](O)[C@H](O)[C@H]6O)CC[C@@]56C[C@@]46CC[C@]23C)O1 [Astragaloside IV] | 7.4 | –
19 | CC(=O)NCCCCCC(=O)O [6-Acetamidohexanoic acid] | 10.9 | –
20 | O=C(O)CNC(=O)[C@@H]1CCCN1 [L-Prolylglycine] (H-Pro-Gly-OH) | 8.2 | –
21 | O=C(CO)[C@@H](O[C@H]1O[C@H](CO)[C@@H](O)[C@H](O)[C@H]1O)[C@H](O)[C@H](O)CO [Turanose] | 9 | –

From entry 15 to 16, copied from above:
Row | Structure (SMILES) | 229E Inhibition rate [%] | 229E Inhibition rate (229E Inhibition rate, 24 h) [%]
15 | C[C@@]12C=Cc3occc3[C@H]1CC[C@@]13C[C@@H](CC[C@H]12)[C@@](O)(CO)C3 [Kahweol] | 6.3 | –
16 | COc1ccc2c3ccnc4ccc(=O)n(c2c1)c43 [9-Methoxycanthin-6-one] | 21.1 | –

Next part

Row | Structure (SMILES) | 229E Inhibition rate [%] | 229E Inhibition rate (229E Inhibition rate, 24 h) [%]
22 | CC(C)=CCO [3-Methyl-2-buten-1-ol] | 18.9 | –
23 | C[C@]12CCC(=O)C=C1CC[C@@H]1[C@@H]2[C@@H](O)C[C@]2(C=O)[C@@H](C(=O)CO)CC[C@@H]12 [Aldosterone] | 45.1 | –
24 | c1coc(CNc2ncnc3[nH]cnc23)c1 [Kinetin] | 43 | –
25 | COC(=O)c1ccc(O)c(OC)c1 [Methyl vanillate] | 0 | –
26 | Cc1c(O)cc2c(c1C)O[C@](C)(CCC[C@H](C)CCC[C@H](C)CCCC(C)C)CC2 [γ-Tocopherol] | 8.2 | –
27 | NC(Cc1ccc(O)c(O)c1)C(=O)O (racemic) [DL-Dopa] | 19.1 | –
28 | COc1ccc2cc3[n+](cc2c1OC)CCc1cc2c(cc1-3)OCO2 [Berberine (sulfate)] | – | 20.5
29 | COc1cc(C[C@H]2COC(=O)[C@@H]2Cc2ccc(O)c(OC)c2)ccc1O [Matairesinol] | 26.8 | –
30 | COc1cc2c(=O)c(-c3ccc(O)cc3)coc2cc1O[C@@H]1O[C@H](COC(C)=O)[C@@H](O)[C@H](O)[C@H]1O [6''-O-Acetylglycitin] | 0 | –
31 | C=Cc1ccc(O)c(OC)c1 [2-Methoxy-4-vinylphenol] | 10.2 | –
32 | CC(C)=CCC[C@](C)(O[C@@H]1O[C@H](CO[C@@H]2O[C@@H](CO)[C@H](O)[C@H]2O)[C@@H](O)[C@H](O)[C@H]1O)[C@H]1CC[C@]2(C)[C@@H]1[C@H](O)C[C@@H]1[C@@]3(C)CC[C@H](O[C@@H]4O[C@H](CO)[C@@H](O)[C@H](O)[C@H]4O)C(C)(C)[C@@H]3CC[C@]12C [Notoginsenoside Fe] | 12.2 | –
33 | CCCCCCCCCCCCCCCC(=O)O [Palmitic acid] | 22 | –
34 | C/C(=C\C(=O)OCCCCCCCCC(=O)O)C[C@@H]1OC[C@H](C[C@@H]2O[C@H]2[C@@H](C)[C@H](C)O)[C@@H](O)[C@H]1O [Mupirocin] | 43.8 | –
35 | CC(=O)N[C@H]1[C@H](O[C@@H]([C@H](O)[C@H](C=O)NC(C)=O)[C@H](O)CO)O[C@H](CO)[C@@H](O[C@@H]2O[C@H](CO)[C@@H](O)[C@H](O)[C@H]2NC(C)=O)[C@@H]1O [N,N',N''-Triacetylchitotriose] | 8 | –
36 | CN1CCc2cc3c(cc2C1O)OCO3 (centres unmarked) [Hydrastinine (hydrochloride)] | – | 11.1
37 | COc1c(O)cc2oc(-c3ccccc3)cc(=O)c2c1O [Oroxylin A] | 8 | –
38 | C/C=C/C=C/C=C\CC/C=C/C(=O)NCC(C)(C)O [Hydroxy-α-sanshool] | 19.7 | –
39 | C[C@@H]1O[C@@H](OC[C@H]2O[C@@H](OCCc3ccc(O)c(O)c3)[C@H](O)[C@@H](OC(=O)/C=C/c3ccc(O)c(O)c3)[C@@H]2O)[C@H](O)[C@H](O)[C@H]1O [Isoforsythiaside] | – | 3.4
40 | COc1cc2c(c(OC)c1OC)-c1c(cc3c(c1OC)OCO3)C[C@H](C)[C@H](C)C2 [Schisandrin B] | – | 56.2
41 | C[C@H](CC[C@@H](O[C@@H]1O[C@H](CO[C@@H]2O[C@H](CO)[C@@H](O)[C@H](O)[C@H]2O)[C@@H](O)[C@H](O)[C@H]1O[C@@H]1O[C@H](CO)[C@@H](O)[C@H](O)[C@H]1O)C(C)(C)O)[C@H]1CC[C@@]2(C)[C@@H]3CC=C4[C@@H](CC[C@H](O[C@@H]5O[C@H](CO)[C@@H](O[C@@H]6O[C@H](CO)[C@@H](O)[C@H](O)[C@H]6O)[C@H](O)[C@H]5O)C4(C)C)[C@]3(C)[C@H](O)C[C@]12C [Isomogroside V] | 20.2 | –
42 | C[C@@H]1[C@H]2[C@H](O[C@@H]3O[C@H](CO)[C@@H](O)[C@H](O)[C@H]3O)OC=C(C(=O)O)[C@H]2C[C@@H]1O [Loganic acid] | 15.6 | –

Row | Structure (SMILES) | 229E Inhibition rate [%] | 229E Inhibition rate (229E Inhibition rate, 24 h) [%]
43 | c1cc2c(cc1[C@H]1OC[C@@H]3[C@H]1CO[C@H]3c1ccc3c(c1)OCO3)OCO2 [(-)-Asarinin] | 9.2 | –
44 | Oc1cc(O)c2c(c1)O[C@@]1(c3ccc(O)c(O)c3)Oc3cc(O)c4c(c3[C@@H]2[C@H]1O)O[C@H](c1ccc(O)c(O)c1)[C@H](O)C4 [Procyanidin A2] | 11.8 | –
45 | CCCCCCCC/C=C/CCCCCCCC(=O)O [Elaidic acid] | 15 | –
46 | CC(C)(CC(=O)O)CC(=O)O [3,3-Dimethylglutaric acid] | 5.4 | –
47 | COc1ccc(C(C)=O)cc1O [3-Hydroxy-4-methoxyacetophenone] | 50.5 | –
48 | Cn1cnc(CCN)c1 [1-Methylhistamine (dihydrochloride)] | 11.2 | –
49 | OC[C@H]1O[C@@H](Oc2c[nH]c3ccccc23)[C@H](O)[C@@H](O)[C@@H]1O [Indican] | 16.8 | –
50 | CC=CC(=O)C1=C(C)CCCC1(C)C [β-Damascone] | 27.1 | –
51 | C[C@H]1O[C@@H](n2cnc3c(N)ncnc32)[C@H](O)[C@@H]1O [5'-Deoxyadenosine] | 24.8 | –
52 | CCCCCCCC(O)CC(=O)O (centres unmarked) [3-Hydroxycapric acid] | 14.4 | –
53 | C=C[C@H]1CN2CC[C@H]1C[C@@H]2[C@@H](O)c1ccnc2ccccc12 [Cinchonine] | 53.6 | –
54 | COC1=CC(=O)c2ccccc2C1=O [Lawsone methyl ether] | 15.9 | –
55 | O=[N+]([O-])c1ccc(O)c(O)c1 [4-Nitrocatechol] | 4.6 | –
56 | COc1cc(O)cc2c1C(=O)C[C@@H](c1ccccc1)O2 [Alpinetin] | 10.1 | –
57 | O=C(O)C1CCCCN1 (centres unmarked) [Pipecolic acid] | 19.9 | –
58 | CNC(=S)NC [N,N'-Dimethylthiourea] | 6.9 | –
59 | NC(=O)CC[C@H](N)C(=O)O [L-Glutamine] | 10.3 | –
60 | CCCCCCCCCCCCC(=O)OC [Methyl tridecanoate] | 30.8 | –
61 | O=C1CCNC(=O)N1 [Dihydrouracil] | 0 | –
62 | CCCCCCCC/C=C\CCCCCCCC(=O)OCC [Ethyl oleate] | 36.8 | –
